Results reported in publication PMC7381282.
These are yes or no findings as the source states them, for the method shown. Binding seen in cells or lysates may run through a third protein. A yes stands for co-enrichment or nearness to the bait. Other partners may have been found.

The chains behind the UniProt entries cited, without tags or fusion partners.
UniProt O73885: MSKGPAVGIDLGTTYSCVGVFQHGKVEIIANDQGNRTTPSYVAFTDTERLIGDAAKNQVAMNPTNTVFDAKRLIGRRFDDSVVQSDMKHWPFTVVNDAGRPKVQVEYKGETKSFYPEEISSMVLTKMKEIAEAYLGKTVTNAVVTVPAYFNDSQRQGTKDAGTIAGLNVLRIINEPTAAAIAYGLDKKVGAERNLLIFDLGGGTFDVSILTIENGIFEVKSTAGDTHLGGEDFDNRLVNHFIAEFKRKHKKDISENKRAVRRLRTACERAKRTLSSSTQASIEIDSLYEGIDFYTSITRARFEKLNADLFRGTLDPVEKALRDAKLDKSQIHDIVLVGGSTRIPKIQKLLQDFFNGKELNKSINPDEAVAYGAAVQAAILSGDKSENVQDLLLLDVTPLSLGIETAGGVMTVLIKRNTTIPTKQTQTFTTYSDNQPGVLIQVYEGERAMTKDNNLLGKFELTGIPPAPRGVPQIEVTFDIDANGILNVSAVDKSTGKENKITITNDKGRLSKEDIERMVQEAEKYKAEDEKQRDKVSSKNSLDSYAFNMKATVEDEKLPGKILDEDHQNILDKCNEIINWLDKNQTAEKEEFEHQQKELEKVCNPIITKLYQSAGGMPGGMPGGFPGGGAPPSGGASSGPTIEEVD

Target: T1, IBV M41 spike protein (infectious bronchitis virus (IBV) strain M41) (UniProt P12651)
T1 sequence: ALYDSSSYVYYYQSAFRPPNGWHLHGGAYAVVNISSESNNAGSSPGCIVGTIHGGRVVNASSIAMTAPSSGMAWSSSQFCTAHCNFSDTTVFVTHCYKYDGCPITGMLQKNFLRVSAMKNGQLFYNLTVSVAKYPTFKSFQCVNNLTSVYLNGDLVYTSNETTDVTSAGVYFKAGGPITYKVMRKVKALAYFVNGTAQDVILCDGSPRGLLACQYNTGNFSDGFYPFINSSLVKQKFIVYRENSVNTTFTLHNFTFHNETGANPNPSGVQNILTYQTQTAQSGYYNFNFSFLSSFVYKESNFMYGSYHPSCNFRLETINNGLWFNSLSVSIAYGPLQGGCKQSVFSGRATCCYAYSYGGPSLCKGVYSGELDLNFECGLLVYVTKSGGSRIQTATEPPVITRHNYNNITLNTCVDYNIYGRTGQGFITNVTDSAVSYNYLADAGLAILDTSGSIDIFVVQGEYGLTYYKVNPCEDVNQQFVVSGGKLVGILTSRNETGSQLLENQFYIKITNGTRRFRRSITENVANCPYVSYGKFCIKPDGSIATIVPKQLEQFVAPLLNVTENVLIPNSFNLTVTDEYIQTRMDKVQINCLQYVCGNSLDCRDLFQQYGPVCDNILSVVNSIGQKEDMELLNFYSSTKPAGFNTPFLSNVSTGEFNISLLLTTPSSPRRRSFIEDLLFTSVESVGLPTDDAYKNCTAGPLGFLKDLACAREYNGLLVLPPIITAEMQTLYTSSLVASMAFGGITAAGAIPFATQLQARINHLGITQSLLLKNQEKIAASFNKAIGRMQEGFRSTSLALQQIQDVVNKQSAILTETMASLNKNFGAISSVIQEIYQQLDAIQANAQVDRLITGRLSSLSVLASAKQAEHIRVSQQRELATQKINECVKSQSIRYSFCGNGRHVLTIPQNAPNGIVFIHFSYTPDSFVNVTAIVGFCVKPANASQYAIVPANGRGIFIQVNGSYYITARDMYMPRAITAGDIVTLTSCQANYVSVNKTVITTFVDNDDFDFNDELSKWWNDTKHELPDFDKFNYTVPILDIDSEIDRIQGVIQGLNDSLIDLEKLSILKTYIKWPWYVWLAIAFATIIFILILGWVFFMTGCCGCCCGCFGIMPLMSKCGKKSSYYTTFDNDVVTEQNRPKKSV
Test: affinity purification with mass spectrometry; membrane protein extracts of IBV M41-infected CEK cells immunoprecipitated with mAb 1H1 to spike protein or mouse IgG; silver staining; the specific 70 kDa band analysed by LC-MS/MS

## heat shock protein member 8 (HSPA8), chicken, endogenous (from UniProt O73885 1-646)
  binding: binds
